Here are results for 3 molecules from publication doi:10.1101/2021.09.16.460691.

Sequences of proteins named here, by UniProt entry; tags and fusion partners are left off.
UniProt P61264: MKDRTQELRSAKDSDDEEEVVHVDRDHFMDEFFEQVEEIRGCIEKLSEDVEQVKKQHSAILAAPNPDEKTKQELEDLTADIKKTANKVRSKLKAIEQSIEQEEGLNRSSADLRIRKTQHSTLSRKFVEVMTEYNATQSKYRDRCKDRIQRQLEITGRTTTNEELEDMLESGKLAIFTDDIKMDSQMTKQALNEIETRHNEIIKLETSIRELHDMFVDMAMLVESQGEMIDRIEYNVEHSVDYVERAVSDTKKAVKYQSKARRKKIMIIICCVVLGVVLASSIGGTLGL
UniProt Q8BVE3: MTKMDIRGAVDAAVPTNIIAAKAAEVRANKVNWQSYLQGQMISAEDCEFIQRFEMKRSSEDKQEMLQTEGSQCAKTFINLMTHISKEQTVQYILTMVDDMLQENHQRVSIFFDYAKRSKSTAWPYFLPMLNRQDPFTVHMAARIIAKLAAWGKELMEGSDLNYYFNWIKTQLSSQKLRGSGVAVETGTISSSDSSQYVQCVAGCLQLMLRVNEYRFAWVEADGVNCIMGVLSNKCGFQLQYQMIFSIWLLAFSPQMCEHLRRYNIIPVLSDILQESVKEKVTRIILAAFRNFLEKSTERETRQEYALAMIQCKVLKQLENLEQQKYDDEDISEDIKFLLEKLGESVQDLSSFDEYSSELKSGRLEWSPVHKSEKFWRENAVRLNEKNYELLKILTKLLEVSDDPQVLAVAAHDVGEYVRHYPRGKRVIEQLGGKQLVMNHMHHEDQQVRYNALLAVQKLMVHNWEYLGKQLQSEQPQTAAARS

No constants are given. Whether binding was seen depends on the method and setting. Binding seen in cells or lysates may run through a third protein. These calls come from enrichment with a bait or labelling near it, and not all partners need be listed.

The target of one experiment is T1, mCLN6-BioID2 (mouse) (UniProt Q3U466).
T1 sequence: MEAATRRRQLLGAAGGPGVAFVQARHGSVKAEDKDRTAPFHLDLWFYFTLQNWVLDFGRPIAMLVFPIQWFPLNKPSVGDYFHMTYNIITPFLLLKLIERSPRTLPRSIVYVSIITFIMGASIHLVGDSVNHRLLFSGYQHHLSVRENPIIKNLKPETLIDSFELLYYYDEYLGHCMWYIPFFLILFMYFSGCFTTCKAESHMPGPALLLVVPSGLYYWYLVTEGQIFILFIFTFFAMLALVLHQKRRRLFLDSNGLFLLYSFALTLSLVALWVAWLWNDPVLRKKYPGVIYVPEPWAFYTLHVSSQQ
In words: proximity labelling.

The next experiment concerns the target T2, BioID2-hCLN3 (human) (UniProt Q13286).
T2 sequence: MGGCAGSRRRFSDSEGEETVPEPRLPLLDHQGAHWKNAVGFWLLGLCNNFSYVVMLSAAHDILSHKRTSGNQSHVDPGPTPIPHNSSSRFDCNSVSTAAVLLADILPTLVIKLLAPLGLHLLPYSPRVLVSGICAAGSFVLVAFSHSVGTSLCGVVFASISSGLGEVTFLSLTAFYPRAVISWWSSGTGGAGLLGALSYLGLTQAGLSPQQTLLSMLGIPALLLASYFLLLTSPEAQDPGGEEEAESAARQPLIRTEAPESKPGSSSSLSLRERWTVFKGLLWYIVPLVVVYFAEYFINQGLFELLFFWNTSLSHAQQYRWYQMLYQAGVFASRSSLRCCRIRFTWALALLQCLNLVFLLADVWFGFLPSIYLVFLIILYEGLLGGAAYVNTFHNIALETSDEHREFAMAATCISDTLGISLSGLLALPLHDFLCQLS
In words: proximity labelling.

As for Syntaxin 1B (from UniProt P61264 1-288), the binding result with mCLN6-BioID2 (mouse) and in the experiment with BioID2-hCLN3 (human) was “binds” each time.

With “ATPase H+ Transporting V1 Subunit H (from UniProt Q8BVE3 1-483)”, the binding result with mCLN6-BioID2 (mouse) and with BioID2-hCLN3 (human) was “binds” each time.

B1: Synaptobrevin homolog YKT6 (protein, UniProt Q9CQW1 1-198)
chain: MKLYSLSVLYKGDPKAVLLKAAYDVSSFSFFQRSSVQEFMTFTSQLIVERSGKGSRASVKEQEYLCHVYVRSDSLAGVVIADSEYPSRVAFTLLEKVLDEFSKQVDRIDWPVGSPATIQYTGLDDHLSKYQNPREADPMSKVQAELDETKIILHNTMESLLERGEKLDDLVSKSEVLGTQSKAFYKTARKQNSCCAIM
B1: the binding result with mCLN6-BioID2 (mouse) and with BioID2-hCLN3 (human) was “binds” throughout.
